# Results deposited as PubChem BioAssay AID686937 (Drosophila RNAi Screening Center, 2013)
# Purpose: 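Knock-downs that reduce output of a secreted reporter enzyme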 (primary screen)
# Cell system: Drosophila S2 cells expressing secreted horseradish peroxidase
# Knock-down reagent: long dsRNA against Drosophila genes
# Timing: about 5.5 days (5 days dsRNA, then 12 h reporter induction)
# Treatment: reporter expression induced after 5 days of dsRNA, read 12 h later; inducer not stated
# Measurement: 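After 5 days of dsRNA and 12 h of reporter induction, medium peroxidase read by chemiluminescence and scored as per-plate z-score; higher values mean more reporter released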
# Direction: z-score: higher = more reporter secreted into medium
# The deposit covers about 23,000 reagents; this is a random part of those with a known target gene and a result. 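Reduced-secretion tags in replicate 1 do not always agree with the z-scores; no criterion for assigning the tags was given.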 Names joined by + are all predicted targets of the reagent. Further read-outs or replicates are left out here. Not given: the amount of reagent.
gene,dsRNA,"z-score, replicate 1"
CheB38b,DRSC22874,0.93
Lk,DRSC10022,0.46
egr,DRSC06233,0.18
CG17026,DRSC10237,0.39
Gs1l,DRSC00754,0.42
TfIIS,DRSC03455,-0.77
AstA-R2,DRSC14171,0.2
CG17991,DRSC15294,0.1
RIOK1,DRSC09853,0.25
yellow-d2,DRSC04591,0.27
Reg-2,DRSC08690,0.25
Cph,DRSC17507,1.07
Cph,DRSC18434,0.37
CARPA,DRSC17905,-0.03
CARPA,DRSC21633,0.15
CG1236,DRSC12203,0.39
Rbbp5 + CG6434 (retired record),DRSC10635,0.29
CG15458,DRSC20529,-0.9
CG10140,DRSC09704,0.35
SelR,DRSC16071,-0.06
Twdlalpha,DRSC19914,0.3
CG15643,DRSC19679,0.46
CG5577,DRSC10519,0.27
CG30430,DRSC22260,1.56
CG15923,DRSC15129,0.32
Kif19A,DRSC16576,-0.63
CG10597,DRSC19357,0.52
sm,DRSC05795,-0.18
sm,DRSC07686,0.02
Lamtor5,DRSC18491,-0.14
l(3)72Dr,DRSC10478,0.43
Cul1,DRSC07645,0.57
CG14342,DRSC00372,0.3
Fuca,DRSC10591,0.5
FucTD,DRSC08634,0.31
r + CG13012,DRSC19531,-0.46
CG14285,DRSC14766,0.48
CG32847,DRSC22901,-0.93
Tes,DRSC06996,0.08
CG31697,DRSC22273,-0.01
CG30197,DRSC22394,0.15
PDZ-GEF,DRSC03231,0.22
Or43a,DRSC07485,0.44
Abcd3,DRSC19488,-0.33
Dop2R,DRSC20683,0.04
Dop2R,DRSC20686,0.33
CG7289,DRSC00697,-0.07
CG14762,DRSC05073,0.62
CG14762,DRSC06496,0.31
hep,DRSC19839,0.12
hep,DRSC20337,0.38
CG4461,DRSC10423,0.25
GlcT,DRSC04525,0.62
PI31,DRSC07306,0.49
CG14298,DRSC14777,0.45
InR,DRSC16717,0.46

Entries listed so far whose target name starts with L or l (3):
gene,dsRNA,"z-score, replicate 1"
Lk,DRSC10022,0.46
Lamtor5,DRSC18491,-0.14
l(3)72Dr,DRSC10478,0.43
